In this assay the target is T1, TIA-1 related protein (TIA-R) (human (endogenous in frontal cortex tissue)) (UniProt Q01085).
T1 sequence: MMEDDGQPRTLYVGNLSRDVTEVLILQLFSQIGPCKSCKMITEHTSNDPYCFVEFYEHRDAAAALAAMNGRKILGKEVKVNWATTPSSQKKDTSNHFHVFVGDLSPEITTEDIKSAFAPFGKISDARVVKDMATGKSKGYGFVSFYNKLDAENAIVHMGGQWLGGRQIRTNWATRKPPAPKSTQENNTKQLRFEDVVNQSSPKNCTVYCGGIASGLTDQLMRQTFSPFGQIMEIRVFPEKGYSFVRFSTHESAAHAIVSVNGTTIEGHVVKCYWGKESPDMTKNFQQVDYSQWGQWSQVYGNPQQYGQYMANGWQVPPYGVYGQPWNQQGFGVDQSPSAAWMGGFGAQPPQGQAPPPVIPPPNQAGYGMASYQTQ
Briefly: affinity purification with mass spectrometry.

Results are given in words; binding and its absence hold for the method and conditions named. In cells and extracts the contact can be indirect. These calls come from enrichment with a bait or labelling near it, and not all partners need be listed.

B1: SEPTIN7 (protein, UniProt Q16181 1-437)
chain: MSVSARSAAAEERSVNSSTMVAQQKNLEGYVGFANLPNQVYRKSVKRGFEFTLMVVGESGLGKSTLINSLFLTDLYSPEYPGPSHRIKKTVQVEQSKVLIKEGGVQLLLTIVDTPGFGDAVDNSNCWQPVIDYIDSKFEDYLNAESRVNRRQMPDNRVQCCLYFIAPSGHGLKPLDIEFMKRLHEKVNIIPLIAKADTLTPEECQQFKKQIMKEIQEHKIKIYEFPETDDEEENKLVKKIKDRLPLAVVGSNTIIEVNGKRVRGRQYPWGVAEVENGEHCDFTILRNMLIRTHMQDLKDVTNNVHYENYRSRKLAAVTYNGVDNNKNKGQLTKSPLAQMEEERREHVAKMKKMEMEMEQVFEMKVKEKVQKLKDSEAELQRRHEQMKKNLEAQHKELEEKRRQFEDEKANWEAQQRILEQQNSSRTLEKNKKKGKIF
On to B1, for which the binding entry is “binds”.

B2: HNRNPL (protein, UniProt P14866 1-589)
chain: MSRRLLPRAEKRRRRLEQRQQPDEQRRRSGAMVKMAAAGGGGGGGRYYGGGSEGGRAPKRLKTDNAGDQHGGGGGGGGGAGAAGGGGGGENYDDPHKTPASPVVHIRGLIDGVVEADLVEALQEFGPISYVVVMPKKRQALVEFEDVLGACNAVNYAADNQIYIAGHPAFVNYSTSQKISRPGDSDDSRSVNSVLLFTILNPIYSITTDVLYTICNPCGPVQRIVIFRKNGVQAMVEFDSVQSAQRAKASLNGADIYSGCCTLKIEYAKPTRLNVFKNDQDTWDYTNPNLSGQGDPGSNPNKRQRQPPLLGDHPAEYGGPHGGYHSHYHDEGYGPPPPHYEGRRMGPPVGGHRRGPSRYGPQYGHPPPPPPPPEYGPHADSPVLMVYGLDQSKMNCDRVFNVFCLYGNVEKVKFMKSKPGAAMVEMADGYAVDRAITHLNNNFMFGQKLNVCVSKQPAIMPGQSYGLEDGSCSYKDFSESRNNRFSTPEQAAKNRIQHPSNVLHFFNAPLEVTEENFFEICDELGVKRPSSVKVFSGKSERSSSGLLEWESKSDALETLGFLNHYQMKNPNGPYPYTLKLCFSTAQHAS
Consider B2, for which the binding result is “binds”.

B3: HARS1 (protein, UniProt P12081 1-509)
chain: MAERAALEELVKLQGERVRGLKQQKASAELIEEEVAKLLKLKAQLGPDESKQKFVLKTPKGTRDYSPRQMAVREKVFDVIIRCFKRHGAEVIDTPVFELKETLMGKYGEDSKLIYDLKDQGGELLSLRYDLTVPFARYLAMNKLTNIKRYHIAKVYRRDNPAMTRGRYREFYQCDFDIAGNFDPMIPDAECLKIMCEILSSLQIGDFLVKVNDRRILDGMFAICGVSDSKFRTICSSVDKLDKVSWEEVKNEMVGEKGLAPEVADRIGDYVQQHGGVSLVEQLLQDPKLSQNKQALEGLGDLKLLFEYLTLFGIDDKISFDLSLARGLDYYTGVIYEAVLLQTPAQAGEEPLGVGSVAAGGRYDGLVGMFDPKGRKVPCVGLSIGVERIFSIVEQRLEALEEKIRTTETQVLVASAQKKLLEERLKLVSELWDAGIKAELLYKKNPKLLNQLQYCEEAGIPLVAIIGEQELKDGVIKLRSVTSREEVDVRREDLVEEIKRRTGQPLCIC
Turning to B3, the binding entry was “binds”.

B4: SERPING1 (protein, UniProt P05155 23-500)
chain: NPNATSSSSQDPESLQDRGEGKVATTVISKMLFVEPILEVSSLPTTNSTTNSATKITANTTDEPTTQPTTEPTTQPTIQPTQPTTQLPTDSPTQPTTGSFCPGPVTLCSDLESHSTEAVLGDALVDFSLKLYHAFSAMKKVETNMAFSPFSIASLLTQVLLGAGENTKTNLESILSYPKDFTCVHQALKGFTTKGVTSVSQIFHSPDLAIRDTFVNASRTLYSSSPRVLSNNSDANLELINTWVAKNTNNKISRLLDSLPSDTRLVLLNAIYLSAKWKTTFDPKKTRMEPFHFKNSVIKVPMMNSKKYPVAHFIDQTLKAKVGQLQLSHNLSLVILVPQNLKHRLEDMEQALSPSVFKAIMEKLEMSKFQPTLLTLPRIKVTTSQDMLSIMEKLEFFDFSYDLNLCGLTEDPDLQVSAMQHQTVLELTETGVEAAAASAISVARTLLVFEVQQPFLFVLWDQQHKFPVFMGRVYDPRA
Take B4: the binding entry is listed as “binds”.

B5: NFASC (protein, UniProt O94856 25-1347)
chain: IEIPMDPSIQNELTQPPTITKQSAKDHIVDPRDNILIECEAKGNPAPSFHWTRNSRFFNIAKDPRVSMRRRSGTLVIDFRSGGRPEEYEGEYQCFARNKFGTALSNRIRLQVSKSPLWPKENLDPVVVQEGAPLTLQCNPPPGLPSPVIFWMSSSMEPITQDKRVSQGHNGDLYFSNVMLQDMQTDYSCNARFHFTHTIQQKNPFTLKVLTTRGVAERTPSFMYPQGTASSQMVLRGMDLLLECIASGVPTPDIAWYKKGGDLPSDKAKFENFNKALRITNVSEEDSGEYFCLASNKMGSIRHTISVRVKAAPYWLDEPKNLILAPGEDGRLVCRANGNPKPTVQWMVNGEPLQSAPPNPNREVAGDTIIFRDTQISSRAVYQCNTSNEHGYLLANAFVSVLDVPPRMLSPRNQLIRVILYNRTRLDCPFFGSPIPTLRWFKNGQGSNLDGGNYHVYENGSLEIKMIRKEDQGIYTCVATNILGKAENQVRLEVKDPTRIYRMPEDQVARRGTTVQLECRVKHDPSLKLTVSWLKDDEPLYIGNRMKKEDDSLTIFGVAERDQGSYTCVASTELDQDLAKAYLTVLADQATPTNRLAALPKGRPDRPRDLELTDLAERSVRLTWIPGDANNSPITDYVVQFEEDQFQPGVWHDHSKYPGSVNSAVLRLSPYVNYQFRVIAINEVGSSHPSLPSERYRTSGAPPESNPGDVKGEGTRKNNMEITWTPMNATSAFGPNLRYIVKWRRRETREAWNNVTVWGSRYVVGQTPVYVPYEIRVQAENDFGKGPEPESVIGYSGEDYPRAAPTEVKVRVMNSTAISLQWNRVYSDTVQGQLREYRAYYWRESSLLKNLWVSQKRQQASFPGDRLRGVVSRLFPYSNYKLEMVVVNGRGDGPRSETKEFTTPEGVPSAPRRFRVRQPNLETINLEWDHPEHPNGIMIGYTLKYVAFNGTKVGKQIVENFSPNQTKFTVQRTDPVSRYRFTLSARTQVGSGEAVTEESPAPPNEATPTAAPPTLPPTTVGATGAVSSTDATAIAATTEATTVPIIPTVAPTTIATTTTVATTTTTTAAATTTTESPPTTTSGTKIHESAPDEQSIWNVTVLPNSKWANITWKHNFGPGTDFVVEYIDSNHTKKTVPVKAQAQPIQLTDLYPGMTYTLRVYSRDNEGISSTVITFMTSTAYTNNQADIATQGWFIGLMCAIALLVLILLIVCFIKRSRGGKYPVREKKDVPLGPEDPKEEDGSFDYSDEDNKPLQGSQTSLDGTIKQQESDDSLVDYGEGGEGQFNEDGSFIGQYTVKKDKEETEGNESSEATSPVNAIYSLA
For B5, the binding result was “binds”.

B6: APOL1 (protein, UniProt O14791 28-398)
chain: EEAGARVQQNVPSGTDTGDPQSKPLGDWAAGTMDPESSIFIEDAIKYFKEKVSTQNLLLLLTDNEAWNGFVAAAELPRNEADELRKALDNLARQMIMKDKNWHDKGQQYRNWFLKEFPRLKSELEDNIRRLRALADGVQKVHKGTTIANVVSGSLSISSGILTLVGMGLAPFTEGGSLVLLEPGMELGITAALTGITSSTMDYGKKWWTQAQAHDLVIKSLDKLKEVREFLGENISNFLSLAGNTYQLTRGIGKDIRALRRARANLQSVPHASASRPRVTEPISAESGEQVERVNEPSILEMSRGVKLTDVAPVSFFLVLDVVYLVYESKHLHEGAKSETAEELKKVAQELEEKLNILNNNYKILQADQEL
Consider B6, for which the binding result is on record as “binds”.

B7: EEF1B2 (protein, UniProt P24534 1-225)
chain: MGFGDLKSPAGLQVLNDYLADKSYIEGYVPSQADVAVFEAVSSPPPADLCHALRWYNHIKSYEKEKASLPGVKKALGKYGPADVEDTTGSGATDSKDDDDIDLFGSDDEEESEEAKRLREERLAQYESKKAKKPALVAKSSILLDVKPWDDETDMAKLEECVRSIQADGLVWGSSKLVPVGYGIKKLQIQCVVEDDKVGTDMLEEQITAFEDYVQSMDVAAFNKI
B7: the binding entry is “binds”.

B8: PRDX3 (protein, UniProt P30048 62-256)
chain: APAVTQHAPYFKGTAVVNGEFKDLSLDDFKGKYLVLFFYPLDFTFVCPTEIVAFSDKANEFHDVNCEVVAVSVDSHFSHLAWINTPRKNGGLGHMNIALLSDLTKQISRDYGVLLEGSGLALRGLFIIDPNGVIKHLSVNDLPVGRSVEETLRLVKAFQYVETHGEVCPANWTPDSPTIKPSPAASKEYFQKVNQ
In the case of B8, the binding result was “binds”.

B9: PLCB3 (protein, UniProt Q01970 1-1234)
chain: MAGAQPGVHALQLEPPTVVETLRRGSKFIKWDEETSSRNLVTLRVDPNGFFLYWTGPNMEVDTLDISSIRDTRTGRYARLPKDPKIREVLGFGGPDARLEEKLMTVVSGPDPVNTVFLNFMAVQDDTAKVWSEELFKLAMNILAQNASRNTFLRKAYTKLKLQVNQDGRIPVKNILKMFSADKKRVETALESCGLKFNRSESIRPDEFSLEIFERFLNKLCLRPDIDKILLEIGAKGKPYLTLEQLMDFINQKQRDPRLNEVLYPPLRPSQARLLIEKYEPNQQFLERDQMSMEGFSRYLGGEENGILPLEALDLSTDMTQPLSAYFINSSHNTYLTAGQLAGTSSVEMYRQALLWGCRCVELDVWKGRPPEEEPFITHGFTMTTEVPLRDVLEAIAETAFKTSPYPVILSFENHVDSAKQQAKMAEYCRSIFGDALLIEPLDKYPLAPGVPLPSPQDLMGRILVKNKKRHRPSAGGPDSAGRKRPLEQSNSALSESSAATEPSSPQLGSPSSDSCPGLSNGEEVGLEKPSLEPQKSLGDEGLNRGPYVLGPADREDEEEDEEEEEQTDPKKPTTDEGTASSEVNATEEMSTLVNYIEPVKFKSFEAARKRNKCFEMSSFVETKAMEQLTKSPMEFVEYNKQQLSRIYPKGTRVDSSNYMPQLFWNVGCQLVALNFQTLDVAMQLNAGVFEYNGRSGYLLKPEFMRRPDKSFDPFTEVIVDGIVANALRVKVISGQFLSDRKVGIYVEVDMFGLPVDTRRKYRTRTSQGNSFNPVWDEEPFDFPKVVLPTLASLRIAAFEEGGKFVGHRILPVSAIRSGYHYVCLRNEANQPLCLPALLIYTEASDYIPDDHQDYAEALINPIKHVSLMDQRARQLAALIGESEAQAGQETCQDTQSQQLGSQPSSNPTPSPLDASPRRPPGPTTSPASTSLSSPGQRDDLIASILSEVAPTPLDELRGHKALVKLRSRQERDLRELRKKHQRKAVTLTRRLLDGLAQAQAEGRCRLRPGALGGAADVEDTKEGEDEAKRYQEFQNRQVQSLLELREAQVDAEAQRRLEHLRQALQRLREVVLDANTTQFKRLKEMNEREKKELQKILDRKRHNSISEAKMRDKHKKEAELTEINRRHITESVNSIRRLEEAQKQRHDRLVAGQQQVLQQLAEEEPKLLAQLAQECQEQRARLPQEIRRSLLGEMPEGLGDGPLVACASNGHAPGSSGHLSGADSESQEENTQL
Regarding B9, the binding result is reported as “binds”.

B10: RBM3 (protein, UniProt P98179 1-157)
chain: MSSEEGKLFVGGLNFNTDEQALEDHFSSFGPISEVVVVKDRETQRSRGFGFITFTNPEHASVAMRAMNGESLDGRQIRVDHAGKSARGTRGGGFGAHGRGRSYSRGGGDQGYGSGRYYDSRPGGYGYGYGRSRDYNGRNQGGYDRYSGGNYRDNYDN
B10: the binding result is “binds”.

The values above are taken from article doi:10.1101/2025.07.20.665556.
